The list is a part of this screen's results and no random one: it is rich in T/C values a quarter to a half above the control, in often repeated tests (any T/C) and in doses without a T/C. Further doses and runs are listed elsewhere. T/C is the treated group as % of the vehicle group. Some doses have a count of surviving animals in place of a T/C: the source files T/C as zero there, which appears to mark a toxic dose or a test without result, not a measured value. Some doses without a T/C left all or most animals alive at the check, yet need not have been tolerated: the source hardly ever lists a survival T/C far under the control, and the zero likely stands for such cases as well. Counts of survivors are from the toxicity check (mostly the fifth day) where no day follows; animals may have died later. Schedules are NCI's codes, taken here to give the interval after Q, in days (D) or hours (H), and the number of doses after X. Some entries were tested several times; the results are listed from low to high. Where survival is the endpoint, the PubChem record calls one and a half times the control and up active, and a quarter to a half above the control has no call in these data; cut-offs in other NCI protocols can differ. Some T/C values are followed by the survivors on the day toxicity was checked, most often the fifth; where none is given, no animal had died by that day. Brackets with × count equal records among those shown.
Test system: P388 leukemia ip, CD2F1 mice, survival T/C
Assay: NCI In Vivo Anticancer Drug Screen. Data for tumor model P388 Leukemia (intraperitoneal) in CD2F1 (CDF1) mice
Settings: T/C endpoint: median survival time, higher T/C = longer survival
[1] = dose: 25.0 mg/kg/injection, schedule: Q01DX009 (ip), vehicle: Klucel (hydroxypropylcellulose) (HPC)
[2] = dose: 50.0 mg/kg/injection, schedule: Q01DX005 (ip), vehicle: Klucel (hydroxypropylcellulose) (HPC)
[3] = dose: 50.0 mg/kg/injection, schedule: Q01DX009 (ip), vehicle: Klucel (hydroxypropylcellulose) (HPC)
[4] = dose: 50.0 mg/kg/injection, schedule: Q04DX003 (ip), vehicle: Klucel (hydroxypropylcellulose) (HPC)
[5] = dose: 100.0 mg/kg/injection, schedule: Q01DX005 (ip), vehicle: Klucel (hydroxypropylcellulose) (HPC)
[6] = dose: 100.0 mg/kg/injection, schedule: Q01DX009 (ip), vehicle: Klucel (hydroxypropylcellulose) (HPC)
[7] = dose: 100.0 mg/kg/injection, schedule: Q04DX003 (ip), vehicle: Klucel (hydroxypropylcellulose) (HPC)
[8] = dose: 200.0 mg/kg/injection, schedule: Q01DX005 (ip), vehicle: Klucel (hydroxypropylcellulose) (HPC)
[9] = dose: 200.0 mg/kg/injection, schedule: Q01DX009 (ip), vehicle: Klucel (hydroxypropylcellulose) (HPC)
[10] = dose: 200.0 mg/kg/injection, schedule: Q01DX009 (ip), vehicle: saline with Tween-80
[11] = dose: 200.0 mg/kg/injection, schedule: Q04DX003 (ip), vehicle: Klucel (hydroxypropylcellulose) (HPC)
[12] = dose: 400.0 mg/kg/injection, schedule: Q01DX001 (ip), vehicle: Klucel (hydroxypropylcellulose) (HPC)
[13] = dose: 400.0 mg/kg/injection, schedule: Q04DX002 (ip), vehicle: Klucel (hydroxypropylcellulose) (HPC)
[14] = dose: 400.0 mg/kg/injection, schedule: Q04DX003 (ip), vehicle: Klucel (hydroxypropylcellulose) (HPC)
[15] = dose: 100.0 mg/kg/injection, schedule: Q01DX005 (ip), vehicle: saline with Tween-80
[16] = dose: 200.0 mg/kg/injection, schedule: Q01DX005 (ip), vehicle: saline with Tween-80
[17] = dose: 25.0 mg/kg/injection, schedule: Q01DX009 (ip), vehicle: saline with Tween-80
[18] = dose: 50.0 mg/kg/injection, schedule: Q01DX009 (ip), vehicle: saline with Tween-80
[19] = dose: 100.0 mg/kg/injection, schedule: Q01DX009 (ip), vehicle: saline with Tween-80

CN(C)c1nc(N(C)C)nc(N(C)C)n1
T/C (dose: 25.0 mg/kg/injection, schedule: Q01DX005 (ip), vehicle: Klucel (hydroxypropylcellulose) (HPC)): 87, 89, 91, 93, 94, 95 [5 of 6 alive], 96, 98 (2×), 100 (4×), 101, 101 [5 of 6 alive], 102 (4×), 103 (3×), 105 (2×), 107 (2×), 108 (2×), 108 [5 of 6 alive], 110, 111 (4×), 114, 117 % of control
T/C [1]: 89, 91 [5 of 6 alive], 93, 94, 95, 98, 99 (4×), 100 (5×), 102 (2×), 103 (5×), 104 (2×), 106, 108, 111, 112, 114, 118, 119, 121 (2×), 123, 139 % of control
survivor count [1]: 3 of 3
T/C (dose: 50.0 mg/kg/injection, schedule: Q01DX001 (ip), vehicle: Klucel (hydroxypropylcellulose) (HPC)): 86, 95, 96, 97, 100 (6×), 101 (4×), 103, 104 (2×), 105, 106, 107 (4×), 108 (2×), 110 (2×), 111 [5 of 6 alive], 116, 118, 120, 121 % of control
T/C [2]: 90, 94, 97, 98, 99 (2×), 100 (3×), 101 (3×), 102 (4×), 102 [5 of 6 alive], 103, 105, 107, 108 (4×), 109 (2×), 110 (2×), 111 (2×), 112 (4×), 113 % of control
survivor count [2]: 3 of 3
T/C [3]: 90, 93, 98, 100 (2×), 103 (4×), 104 (2×), 105, 107 (3×), 108 (4×), 109 (2×), 110, 111, 112 (2×), 113 (2×), 114, 118, 119, 120, 122, 123, 126, 127, 130 % of control
T/C (dose: 50.0 mg/kg/injection, schedule: Q04DX002 (ip), vehicle: Klucel (hydroxypropylcellulose) (HPC)): 88, 89, 91, 92, 94, 95, 95 [2 of 3 alive], 97 (2×), 98, 99 (3×), 100 (2×), 101 (2×), 102 (3×), 103 (2×), 104, 105 (3×), 106, 110, 113, 115, 116 (2×), 117, 120, 123 % of control
T/C [4]: 88, 95, 96, 99, 100 (7×), 101 (2×), 102 (2×), 104, 105 (3×), 106 (5×), 107 (2×), 108 (3×), 109 (4×), 115 % of control
survivor count [4]: 5 of 6, 3 of 3, 6 of 6
T/C (dose: 100.0 mg/kg/injection, schedule: Q01DX001 (ip), vehicle: Klucel (hydroxypropylcellulose) (HPC)): 87, 95 (2×), 97, 98, 99, 100 (4×), 101 (3×), 102, 103 (2×), 104 (3×), 106 (3×), 107 (3×), 109 (2×), 110 (2×), 115, 117, 119 % of control
T/C [5]: 89, 92 (2×), 97, 99, 100, 102, 103, 105 (3×), 106 (2×), 108 (2×), 109, 110, 111, 112, 115, 116, 117 (2×), 118, 120 (3×), 121 (2×), 123, 127, 127 [2 of 3 alive], 136, 151 % of control
survivor count [5]: 1 of 3 and 6 of 6
T/C [6]: 86 (2×), 89, 90, 93 [2 of 3 alive], 95, 99, 100, 101, 102 (3×), 103, 105, 107, 108 (2×), 109, 110, 111, 112, 113 (3×), 115 [5 of 6 alive], 117, 118 (2×), 123, 127, 128, 130, 131, 137 % of control
survivor count [6]: 0 of 3 and 3 of 3
T/C (dose: 100.0 mg/kg/injection, schedule: Q04DX002 (ip), vehicle: Klucel (hydroxypropylcellulose) (HPC)): 91, 93, 95 (2×), 97, 100 (5×), 101 (2×), 102, 103 (3×), 104 (4×), 105 (3×), 107 (2×), 108 (3×), 109, 111, 114, 115 (2×), 117, 120 % of control
T/C [7]: 87, 88, 97, 98, 99, 100 (4×), 103 (4×), 105 (5×), 109, 110 (2×), 111, 112, 114, 115, 116, 117 (2×), 119 (3×), 120, 122, 124, 139 % of control
survivor count [7]: 3 of 3 and 6 of 6
T/C (dose: 200.0 mg/kg/injection, schedule: Q01DX001 (ip), vehicle: Klucel (hydroxypropylcellulose) (HPC)): 87 [5 of 6 alive], 91, 98, 99, 100 (3×), 101, 102 (2×), 103, 104 (4×), 105 (3×), 106, 107, 109 (2×), 114 (2×), 117 (2×), 118, 119, 123 (2×), 127, 130 % of control
T/C [8]: 87, 92, 103 [2 of 3 alive], 111 (2×), 112, 116, 117, 123, 125, 166 % of control
survivor count [8]: 1 of 3, 2 of 6, 2 of 3, 4 of 6, 5 of 6, 3 of 3, 6 of 6
T/C [9]: 89, 89 [5 of 6 alive], 90, 93, 95 [5 of 6 alive], 99, 112, 138 % of control
survivor count [9]: 1 of 3, 2 of 3, 4 of 6, 3 of 4, 5 of 6, 3 of 3, 6 of 6
survivor count [10]: 5 of 6 and 6 of 6
T/C (dose: 200.0 mg/kg/injection, schedule: Q04DX002 (ip), vehicle: Klucel (hydroxypropylcellulose) (HPC)): 86 [5 of 6 alive], 93, 97, 100 (3×), 101, 101 [2 of 3 alive], 102, 103, 104, 107, 109 (2×), 110, 112 (2×), 112 [5 of 6 alive], 113 (2×), 114 (2×), 115, 116 (2×), 117 (2×), 117 [5 of 6 alive], 118 (2×), 120, 121 (2×), 123, 124 % of control
T/C [11]: 87, 92, 94, 99, 100, 103, 106, 109 (3×), 110, 112 (2×), 113, 114, 116, 117, 118, 121, 122, 125 (3×), 126, 128, 129 (4×), 135, 136, 139 (2×), 145, 148 % of control
survivor count [11]: 3 of 3 and 6 of 6
survivor count (dose: 300.0 mg/kg/injection, schedule: Q01DX005 (ip), vehicle: Klucel (hydroxypropylcellulose) (HPC)): 4 of 6
T/C [12]: 98, 100, 100 [5 of 6 alive], 104, 104 [2 of 3 alive], 105, 107 [5 of 6 alive], 109, 110, 112, 114, 115, 118, 119, 122, 157 % of control
survivor count [12]: 1 of 3, 2 of 6, 3 of 6, 2 of 3, 5 of 6, 3 of 3, 6 of 6
survivor count (dose: 400.0 mg/kg/injection, schedule: Q01DX009 (ip), vehicle: Klucel (hydroxypropylcellulose) (HPC)): 1 of 6
T/C [13]: 92, 93, 97, 101, 103, 106, 110 [5 of 6 alive], 111 [5 of 6 alive], 116 (2×), 123, 125 % of control
survivor count [13]: 0 of 3, 0 of 6, 1 of 3, 3 of 6, 2 of 3, 4 of 6, 5 of 6, 3 of 3, 6 of 6
T/C [14]: 86 [2 of 3 alive], 87, 91, 92, 96, 102, 106, 112 [5 of 6 alive], 113, 114, 138 % of control
survivor count [14]: 1 of 3, 3 of 6, 2 of 3, 4 of 6, 5 of 6, 3 of 3, 6 of 6

CC(/C=C/C1(C)C(C)CCC(=O)C1C)=C\Cc1c(O)c(Cl)c(C)c(C=O)c1O (configuration not stated)
T/C (dose: 12.5 mg/kg/injection, schedule: Q01DX009 (ip), vehicle: Klucel (hydroxypropylcellulose) (HPC)): 126 % of control
survivor count [1]: 1 of 6 and 2 of 6
survivor count [3]: 0 of 6
survivor count [6]: 0 of 6
survivor count [9]: 0 of 6

C[N+](C)(C)CCC(=O)c1ccc(O)cc1
survivor count (dose: 50.0 mg/kg/injection, schedule: Q01DX009 (ip), vehicle: saline): 1 of 6
survivor count (dose: 100.0 mg/kg/injection, schedule: Q01DX009 (ip), vehicle: saline): 0 of 6
survivor count (dose: 200.0 mg/kg/injection, schedule: Q01DX009 (ip), vehicle: saline): 0 of 6

O=[N+]([O-])c1ccc(/C(=C/c2ccccc2)S(=O)(=O)C(Cl)(Cl)Cl)o1
T/C (dose: 100.0 mg/kg/injection, schedule: Q01DX009 (ip), vehicle: suspension in saline): 147 % of control
survivor count (dose: 200.0 mg/kg/injection, schedule: Q01DX009 (ip), vehicle: suspension in saline): 3 of 6

C=C(Cl)C(=NC(C)C)Nc1ccccc1C
T/C (dose: 6.25 mg/kg/injection, schedule: Q01DX005 (ip), vehicle: Klucel (hydroxypropylcellulose) (HPC)): 131 % of control
survivor count [2]: 0 of 6
survivor count [5]: 0 of 6
survivor count [8]: 0 of 6

C#CC(=O)C1OC2OC(C)(C)OC2C2OC(C)(C)OC12 (configuration not stated)
survivor count (dose: 50.0 mg/kg/injection, schedule: Q01DX005 (ip), vehicle: saline with Tween-80): 0 of 6
survivor count [15]: 0 of 6
survivor count [16]: 0 of 6

C/C(=N\NC(=S)Nc1ccc(N(C)C)cc1)c1ccccn1
survivor count [10]: 4 of 6

Clc1n[nH]c(Cl)n1
survivor count [17]: 6 of 6
survivor count [18]: 4 of 6

COc1ccc(C(c2cc3c(cc2O)OCO3)N2CCCC2)c(OC)c1 (configuration not stated)
survivor count (dose: 240.0 mg/kg/injection, schedule: Q01DX005 (ip), vehicle: Klucel (hydroxypropylcellulose) (HPC)): 5 of 6

O=C(NS(=O)(=O)c1ccc(Cl)cc1)c1ccccc1
survivor count [17]: 5 of 6
T/C [19]: 127 % of control [5 of 6 alive]
survivor count [19]: 6 of 6

CC(=O)C[n+]1ccc(C)cc1Sc1ccccc1C
T/C [15]: 125 % of control
survivor count [16]: 0 of 5

NC1=C(Cl)C(=O)C(Cl)=C(Cl)C1=O
survivor count (dose: 3.13 mg/kg/injection, schedule: Q01DX009 (ip), vehicle: saline with Tween-80): 6 of 6
survivor count (dose: 6.25 mg/kg/injection, schedule: Q01DX009 (ip), vehicle: saline with Tween-80): 2 of 6
survivor count (dose: 12.5 mg/kg/injection, schedule: Q01DX009 (ip), vehicle: saline with Tween-80): 0 of 6
survivor count [18]: 0 of 6
survivor count [19]: 0 of 6
survivor count [10]: 0 of 6
